Literature values as cited in US20060183733A1, “Treating microvasculature diseases with acetyl cholinesterase inhibitors” (priority 2005, published 2006).
“Also recorded” adds a separate entry of the source.

Tested on: regional blood flow in the brain
Conditions: PET scanning; Alzheimer's patients and normal subjects; cited from earlier work

COc1cc2c(cc1OC)C(=O)C(CC1CCN(Cc3ccccc3)CC1)C2 (stereo not shown) [donepizil, 1-benzyl-4->(5,6-dimethoxy-1-indanon)-2-yl methylpiperidine]
regional blood flow in the brain / CNS structures: Regional blood flow is increased; also recorded: improve blood flow to CNS structures; also recorded: improve regional blood flow in the brain
